According to paper PMC11408250:

T1: PCDH19-HA-FLAG (Protocadherin 19, endogenous in Pcdh19-HA-FLAG mice) (mouse (endogenous in mouse brain)) (UniProt Q80TF3)
T1 sequence: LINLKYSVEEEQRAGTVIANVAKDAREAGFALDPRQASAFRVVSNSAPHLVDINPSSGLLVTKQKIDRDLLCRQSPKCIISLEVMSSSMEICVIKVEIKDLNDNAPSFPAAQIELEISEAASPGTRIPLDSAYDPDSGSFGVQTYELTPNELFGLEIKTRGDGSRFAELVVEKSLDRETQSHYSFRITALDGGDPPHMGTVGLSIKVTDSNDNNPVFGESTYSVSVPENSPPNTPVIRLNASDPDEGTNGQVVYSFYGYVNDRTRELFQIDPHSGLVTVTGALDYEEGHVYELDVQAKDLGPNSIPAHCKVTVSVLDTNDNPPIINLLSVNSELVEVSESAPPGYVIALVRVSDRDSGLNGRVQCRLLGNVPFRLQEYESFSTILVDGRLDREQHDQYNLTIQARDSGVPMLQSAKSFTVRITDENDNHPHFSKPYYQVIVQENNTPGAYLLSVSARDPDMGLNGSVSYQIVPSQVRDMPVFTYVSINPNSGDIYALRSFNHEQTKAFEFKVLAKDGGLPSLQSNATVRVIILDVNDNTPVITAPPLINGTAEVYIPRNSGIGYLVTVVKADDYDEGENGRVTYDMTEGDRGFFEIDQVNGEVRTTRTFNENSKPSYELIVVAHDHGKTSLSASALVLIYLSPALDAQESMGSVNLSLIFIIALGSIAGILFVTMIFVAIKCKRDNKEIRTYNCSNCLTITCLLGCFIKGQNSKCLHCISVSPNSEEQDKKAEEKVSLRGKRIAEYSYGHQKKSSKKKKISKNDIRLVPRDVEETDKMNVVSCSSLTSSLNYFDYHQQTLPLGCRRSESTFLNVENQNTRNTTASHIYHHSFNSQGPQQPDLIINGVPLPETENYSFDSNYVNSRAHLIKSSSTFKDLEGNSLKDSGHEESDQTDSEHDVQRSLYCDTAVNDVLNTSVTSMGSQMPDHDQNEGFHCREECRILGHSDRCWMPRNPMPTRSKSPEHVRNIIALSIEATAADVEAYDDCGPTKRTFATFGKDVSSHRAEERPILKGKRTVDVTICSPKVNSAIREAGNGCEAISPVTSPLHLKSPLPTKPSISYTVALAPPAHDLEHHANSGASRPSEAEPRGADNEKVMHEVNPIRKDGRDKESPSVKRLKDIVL

B1: Drebrin 1 (protein, UniProt Q9QXS6 1-706)
chain: MAGVSFSGHRLELLAAYEEVIREESAADWALYTYEDGSDDLKLAASGEGGLQELSGHFENQKVMYGFCSVKDSQAALPKYVLINWVGEDVPDARKCACASHVAKVAEFFQGVDVIVNASSVEDIDAGAIGQRLSNGLARLSSPVLHRLRLREDENAEPVGTTYQKTDAAVEMKRINREQFWEQAKKEEELRKEEERKKALDARLRFEQERMEQERQEQEERERRYREREQQIEEHRRKQQSLEAEEAKRRLKEQSIFGDQRDEEEESQMKKSESEVEEAAAIIAQRPDNPREFFRQQERVASASGGSCDAPAPAPFNHRPGRPYCPFIKASDSGPSSSSSSSSSPPRTPFPYITCHRTPNLSSSLPCSHLDSHRRMAPTPIPTRSPSDSSTASTPIAEQIERALDEVTSSQPPPPPPPPPPTQEAQETTPSLDEELSKEAKVTAAPEVWAGCAAEPPQAQEPPLLQSSPLEDSMCTESPEQAALAAPAEPAASVTSVADVHAADTIETTTATTDTTIANNVTPAAASLIDLWPGNGEEASTLQAEPRVPTPPSGAEASLAEVPLLNEAAQEPLPPVGEGCANLLNFDELPEPPATFCDPEEEVGETLAASQVLTMPSALEEVDQVLEQELEPEPHLLTNGETTQKEGTQASEGYFSQSQEEEFAQSEEPCAKVPPPVFYNKPPEIDITCWDADPVPEEEEGFEGGD
B2: Protein Phosphatase 1 Regulatory Subunit 12B (protein, UniProt Q8BG95 1-976)
chain: MAELEHLGGKRAESARARRAEQLRRWRGSLTEQEPAERQGAGRQLQTRRGSPRVRFEDGAVFLAACSSGDTDEVKKLLARGADINTVNVDGLTALHQACIDENLDMVKFLVENRANVNQQDNEGWTPLHAAASCGYLNIAEYFISHGASVGIVNSEGEVPSDLAEEPAMKDLLLEQVKKQGVDLEQSRKEEEQQMLQDARQWLNSGRIEDVRQARSGATALHVAAAKGYSEVLRLLIQAGYELNVQDHDGWTPLHAAAHWGVKEACSILAEALCDMDIRNKLGQTPFDVADEGLVEHLEMLQKKQDVLRSEKETRNKLIESDLNSKFQSGLFKNKEKMLYEEEIPKSQDTEEENKESSSSSSEEEEGEDEVSESETEKEADKKPEATVNHSNSEIKSRIMEQIPAPAQNTFSASSARRLSSLFNKAEEPKDESPSSWRLGLRKTGSHNMLSEVANSREALRDRGSSIYRSSSSPRISALLDDKDKERENKSYFSMLVPRRLSSTSDIEEKENRESAVNLVRSGSHTRQLWRDEAKGSETPQTIAPSTYTSTYLKRTPYKSQADSTAEKTADSVSSSTPLCVITNRPAPSTANGVPAATVFSSAGTDPSVEAREKRRSYLTPVRDEEAESLRKARSRQARQTRRSTQGVTLTDLQEAEKTFSRSRAERQAQEQPGEKLEDPGGLEGSTKKQEPSAAPTKGAGEGRSLEEEPIYHRLRYPTQPDKPTTPVSPSASRPSLYTGSHLLRTSRASGPDSENSETSTHATAAKEMDTSEKGEADLDDQSSNRLSVRERRRAKDRRRGTGINFWTNDEDETDVSEEVKEALHERLSRLESGGTNPTSSDSYSDRASARARREAREARLASLTSRVEEDSNRDYKKLYESALTENQKLKTKLQEAQLELADIKAKLEKMAQQKQEKTSDRSSVLEVEKRERRALERKMSEMEEEMKVLTELKSDNQRLKDENGALIRVISKLSK
B3: Pre-mRNA Processing Factor 31 (protein, UniProt Q8CCF0 1-499)
chain: MSLADELLADLEEAAEEEEGGSYGEEEEEPAIEDVQEETQLDLSGDSVKSIAKLWDSKMFAEIMMKIEEYISKQANVSEVMGPVEAAPEYRVIVDANNLTVEIENELNIIHKFIRDKYSKRFPELESLVPNALDYIRTVKELGNSLDKCKNNENLQQILTNATIMVVSVTASTTQGQQLSDEELERLEEACDMALELNASKHRIYEYVESRMSFIAPNLSIIIGASTAAKIMGVAGGLTNLSKMPACNIMLLGAQRKTLSGFSSTSVLPHTGYIYHSDIVQSLPPDLRRKAARLVAAKCTLAARVDSFHESTEGKVGYELKDEIERKFDKWQEPPPVKQVKPLPAPLDGQRKKRGGRRYRKMKERLGLTEIRKQANRMSFGEIEEDAYQEDLGFSLGHLGKSGSGRVRQTQVNEATKARISKTLQRTLQKQSVVYGGKSTIRDRSSGTASSVAFTPLQGLEIVNPQAAEKKVAEANQKYFSSMAEFLKVKGEKSGTMST
B4: SCY1 Like Protein 2 (protein, UniProt Q8CFE4 1-930)
chain: MESMLNKLKSTVTKVTADVTSAVMGNPVTREFDVGRHIASGGNGLAWKIFNGTKKSTKQEVAVFVFDKKLIDKYQKFEKDQIIDSLKRGVQQLTRLRHPRLLTVQHPLEESRDCLAFCTEPVFASLANVLGNWENLPSSISPDIKDYKLYDVETKYGLLQVSEGLSFLHSSVKMVHGNVTPENVILNKSGAWKIMGFDFCVSSSNPSEQEPKFPCKEWDPNLPSLCLPNPEYLAPEYILSVSCETASDMYSLGAVMYAVFNQGRPIFEVNKQDIYKSFSRQLDQLSRLGSSSLTSIPEEVREHVKLLLNVTPTVRPDADQMTKIPFFDDVGAVTLQYFDTLFQRDNLQKSQFFKGLPKVLPKLPKRVIVQRILPCLTSEFVNPDMVPFVLPNVLLIAEECTKEEYIKLILPELGPVFKQQEPIQILLIFLQKMDLLLTKTPPDEIKNSVLPMVYRALEAPSIQIQELCLNIIPTFANLIDYPSMKNALIPRIKNACLQTSSLAVRVNSLVCLGKILEYLDKWFVLDDILPFLQQIPSKEPAVLMGILGIYKCTFTHKKLGITKEQLAGKVLPHLIPLSIENNLNLNQFSSFIAVIKEMLSRLESEHRTKLEQLHVMQEQQRSLDIGNQMSTSEETKVAHSGSQQIDKVFNNIGADLLSGSESENREDGMQGKQKRGSLTLEEKQKLAKEQEQAQKLKSQQPLKPQVHTPIAPIKQTKDLTDTLMENMSSLTSLSVSTPKISASSTFTPVPSTGLGMMFSTPIDNTKRNLTNGLNANMGFQTSGFSMPVNPNQNFFSGTGTAGVTTMSLGAPPTMSNFSPLTIPPASVKQPQQRPTDMSALNNLFGPQKPKVSMNQLSQQKPNQWLNQFAPPQGSPVMGSAAMGTQGNVMGQAAFGMQGNPFFNPQNFAQPPPTTMTSSSSASNDLKDLFG
B5: Signal-Induced Proliferation-Associated 1 (protein, UniProt P46062 1-1037)
chain: MWAGGVGSPRRGMAPAPTDDLFARKLRQPARPPLTPNTFEPRPARGPLLRSGSDAGEVRPPTPASPRARAHSHEDASRPAATPTRLFTDPLALLGLPAEEPEPTFPPVLEPRWFAHYDVQSLLFDWAPRPRGTGSHTEANSGTLAEGQTTTSDLLLGAPGFVSELGGEGELGLGGPISPPVPPALPNAAVSVLEEPQTRTTTYSLEHADLGAGYYRKYFYGKEHQNFFGLDEALGPVAVSLRREEKEGSGGGTLHSYRVIVRTTQLRTLRGTISEDALPPGPPSVSPRKLLEHVAPRLSPTCLRLGSASPKVPRQLLTLDEQVLSFQRKGGILYCRAGQGSEEEMYNNQEAGAAFMQFLTLLGDVVRLKGFESYRAQLDTKTDSTGTHSLYTTYQDHEIMFHVSTMLPYTPNNQQQLLRKRHIGNDIVTIVFQEPGSKPFCPTTIRSHFQHVFLVVRAHAPCTPHTSYRVAVSRTQDTPAFGPALPEGGGPFAANADFRAFLLAKALNGEQAAGHARQFHAMATRTRQQYLQDLATNEVTTTSLDSASRFGLPSLGGRRRATPRSPGADVQAAGALMWGVRAAPGARVAAGAETSGPDDAEVPCLLGISAETLVLVAPRDGRVVFNCACRDVLAWTFSEHQLDLYHGRGEAITLRLDGAPGQAVGEVVARLQLVSRGCETRELALPRDGQGRLGFEVDAEGFITHVERFTFAETTGLRPGARLLRVCGQTLPKLGPETAAQMLRSAPKVCVTVLPPDESGRPRRSFSELYMLSLKEPSRRGGPEPVQDETGKLVILPPTKQLLHFCLKDSSSPPGPGDLTEERTEFLRTHNSLSSGSSLSDEAPVLPNTTPDLLLVTTANPSAPGTDRETPPSQDQSGSPSSHEDTSDSGPELRASILPRTLSLRNSISKIMSEAGSETLEDEWQSISEIASTCNTILESLSREGQPISESGDPKEALKCDSEPEPGSLSEKVSHLESMLWKLQEDLQREKADRAALEEEVRSLRHNNQRLLAESESAATRLLLASKHLGAPTTDLA

How the values were obtained:
[1] = target: T1, PCDH19-HA-FLAG (Protocadherin 19, endogenous in Pcdh19-HA-FLAG mice) (mouse (endogenous in mouse brain)); assay: affinity purification with mass spectrometry; Experiment 2, embryonic: PCDH19-HA-FLAG precipitated with anti-FLAG M2 affinity gel from E17.5-18.5 mouse cortex and hippocampus lysate, control mouse IgG affinity gel; IP Buffer, overnight 4 °C; LC-MS/MS
[2] = target: T1, PCDH19-HA-FLAG (Protocadherin 19, endogenous in Pcdh19-HA-FLAG mice) (mouse (endogenous in mouse brain)); assay: affinity purification with mass spectrometry; Experiment 2, postnatal: PCDH19-HA-FLAG precipitated with anti-FLAG M2 affinity gel from P6-7 mouse cortex and hippocampus lysate, control mouse IgG affinity gel; IP Buffer, overnight 4 °C; LC-MS/MS

Binder	binding [1]	binding [2]
B1	binds	–
B2	binds	–
B3	binds	–
B4	binds	–
B5	–	binds

These are yes or no findings as the source states them, for the method shown. Binding seen in cells or lysates may run through a third protein. Here binding means that the protein was enriched with, or labelled near, the bait; the list need not be complete. Where a sequence is shown, tags or fusion partners need not be part of it.
